PubChem BioAssay AID652243 | Drosophila RNAi Screening Center, 2013
Assay: 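Knock-downs that decrease or increase androgen receptor reporter signal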 (primary screen). Cells: Drosophila S2R+ cells. Reagents: long dsRNA against Drosophila genes. Duration: 72 h (48 h, then 24 h hormone). Challenge: synthetic androgen R1881 at 10 nM for 24 h. Measurement: 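Firefly light from an androgen-responsive reporter and Renilla control light per well, raw and unnormalised, for each of two replicates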. Scale: firefly reporter light: higher = more light from androgen-responsive reporter; Renilla control light: higher = more constitutive control signal (cell number, transfection). Rule for the call: 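Hit when the log firefly-to-Renilla ratio dropped or increased by a fixed fold versus the mean of GFP or LacZ controls across duplicate plates; lowering cut given as 1.5 and as 3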. Calls: active = hit: reporter lowered or raised; inactive = no hit.
The screen tested about 24,000 reagents; this is an unselected part of those with a known target gene and a result. In the full data, 246 (1%) got an active call. 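Plates not normalised; calls are printed but the firefly/Renilla ratio behind them is not deposited; fold cut for lowering reported inconsistently.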 The raw values are shown without normalisation. A number with no mark means an inactive call. Not given: the amount of reagent.

Target gene,amplicon,"firefly reporter light, replicate 1","firefly reporter light, replicate 2","Renilla control light, replicate 1","Renilla control light, replicate 2"
CG15824,DRSC00473,2.31e5,98003,1.47e6,9.90e5
CG15824,DRSC27412,2.61e5,2.61e5,7.49e5,7.85e5
slp1,DRSC00835,8.74e5,1.02e6,1.66e6,1.16e6
slp1,DRSC24204,3.68e5,2.70e5,1.02e6,6.24e5
l(3)mbt,DRSC16983,40236,63414,5.21e5,5.21e5
l(3)mbt,DRSC26103,4.27e5,4.55e5,1.09e6,8.73e5
Ugt303A1,DRSC15641,1.87e5,2.24e5,2.16e6,2.78e6
CG32945,DRSC12014,1.67e5,1.58e5,3.67e5,2.32e5
Polr1C,DRSC02719,8.25e5,9.06e5,1.92e6,1.88e6
CG14131,DRSC10135,3.31e5,1.66e5,2.28e6,1.10e6
CG14131,DRSC27727,2.24e5,3.38e5,6.29e5,6.77e5
eEF5,DRSC04681,2.58e5,2.95e5,2.13e6,1.64e6
salr,DRSC03607,1.65e5,1.47e5,1.04e6,1.28e6
Glg1,DRSC11815,45261,56492,3.30e5,2.34e5
Glg1,DRSC11816,2.89e5,2.12e5,2.27e6,1.16e6
Glg1,DRSC11817,3.08e5,2.79e5,3.12e6,2.79e6
Sgs1,DRSC00787,1.11e5,1.56e5,1.73e6,1.01e6
Jwa,DRSC02048,7.19e5,7.80e5,2.28e6,2.40e6
Jwa,DRSC26655,2.92e5,2.70e5,4.15e5,4.17e5
Coa7,DRSC20967,1.39e5,1.55e5,3.36e5,3.24e5
Coa7,DRSC27224,1.98e5,2.13e5,6.91e5,7.27e5
dac,DRSC03518,2.39e5,2.00e5,2.24e6,2.30e6
CG13151,DRSC06276,2.37e5,2.01e5,1.55e6,1.67e6
Tep4,DRSC03453,66124,1.23e5,8.70e5,1.40e6
TfIIFbeta,DRSC16884,1.81e5,1.99e5,2.96e6,2.65e6
TfIIFbeta,DRSC21447,6.97e5,1.05e6,1.40e6,2.05e6
TfIIFbeta,DRSC29742,5.49e5,3.56e5,1.30e6,1.40e6
Ser6,DRSC20574,3.20e5,1.60e5,7.70e5,5.38e5
Ser6,DRSC27628,3.26e5,3.25e5,6.66e5,7.70e5
CG7737,DRSC07033,1.09e6,3.48e5,1.76e6,7.40e5
Fie,DRSC08158,1.06e6,4.65e5,1.99e6,8.52e5
CG15412,DRSC00427,1.11e5,91051,8.16e5,9.61e5
CG17190,DRSC15184,2.49e5,2.41e5,2.70e6,3.39e6
CG3448,DRSC10368,1.47e5,1.19e5,1.19e6,1.14e6
CG3448,DRSC27580,4.14e5,2.43e5,7.20e5,4.45e5
CG8360,DRSC03085,8.02e5,1.03e6,2.23e6,2.62e6
CG8360,DRSC26870,3.81e5,3.04e5,7.33e5,5.53e5
Cdep,DRSC12028,2.83e5,3.72e5,4.63e5,5.38e5
Cdep,DRSC12220,45299,86115,3.05e5,3.67e5
Cdep,DRSC12291,66526,72483,1.57e6,1.45e6
Cdep,DRSC38586,1.38e6,7.22e5,3.42e6,2.27e6
RpS11,DRSC07289,4.46e5,3.57e5,3.95e6,3.13e6
RpS11,DRSC22700,3.28e5,3.87e5,4.69e5,5.39e5
Cth,DRSC07422,4.16e5,3.61e5,6.57e5,6.63e5
CG1416,DRSC03706,8.80e5,4.51e5,2.68e6,1.84e6
Srp9,DRSC10973,2.73e5,2.06e5,1.77e6,1.05e6
ca,DRSC15305,57810,84963,7.84e5,9.12e5
ca,DRSC15306,1.02e5,1.53e5,1.80e6,1.99e6
ca,DRSC16314,1.90e5,1.91e5,2.84e6,2.95e6
CG1698,DRSC06640,1.16e6,8.18e5,1.95e6,1.63e6
CG1698,DRSC24314,7.34e5,7.72e5,7.57e5,9.51e5
Atac2,DRSC02053,8.06e5,9.49e5,1.54e6,1.38e6
sicily,DRSC19704,2.99e5 (active),2.12e5,3.74e6,4.29e6
CG17734,DRSC15256,5.35e5,5.86e5,1.60e6,1.95e6
CG17734,DRSC29210,7.24e5,7.91e5,7.95e5,1.13e6
CG4554,DRSC04473,6.29e5,6.00e5,1.75e6,1.96e6
CG4554,DRSC27881,6.30e5,4.12e5,2.30e6,1.26e6
Jasper,DRSC16352,1.03e5,75539,6.51e5,4.86e5

Quoted from the listing, 7 entries:
Target gene,amplicon,"firefly reporter light, replicate 1","firefly reporter light, replicate 2","Renilla control light, replicate 1","Renilla control light, replicate 2"
slp1,DRSC00835,8.74e5,1.02e6,1.66e6,1.16e6
slp1,DRSC24204,3.68e5,2.70e5,1.02e6,6.24e5
l(3)mbt,DRSC16983,40236,63414,5.21e5,5.21e5
l(3)mbt,DRSC26103,4.27e5,4.55e5,1.09e6,8.73e5
Ugt303A1,DRSC15641,1.87e5,2.24e5,2.16e6,2.78e6
CG32945,DRSC12014,1.67e5,1.58e5,3.67e5,2.32e5
Polr1C,DRSC02719,8.25e5,9.06e5,1.92e6,1.88e6
